The structures appear in SMILES notation. Counter-ions that a name gives are not always drawn. The list shows a part of the results. Single values are uncertain here, since repeats match poorly.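 ReNCell VM, a human fetal ventral-midbrain neural progenitor line, was differentiated without mitogens. Blinded raters scored images stained for doublecortin (early neurons) or tyrosine hydroxylase (dopaminergic neurons) against untreated wells (0 = no change). Scores were averaged across repeats and both raters, and compounds averaging 2 or more were selected as hits for retesting.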

In experiment [1] the test system is ReNCell VM. The experiment in a line: neuronal differentiation score (DCX+ cell fraction vs untreated, manual image score) (score (-3 to 3)); higher = more neuronal differentiation. The following applies: 2 uM, 2 weeks.
Experiment [2] concerns ReNCell VM. The experiment is described as follows: dopaminergic neuron differentiation score (TH+ cell fraction vs untreated, manual image score) (score (0 to 3)); higher = more TH+ dopaminergic neuron differentiation. The conditions noted are these: 2 uM, 4 weeks, BDNF 10 ng/ml + GDNF 10 ng/ml.

Regarding `COc1ccccc1N1CCN(CCN(C(=O)C2CCCCC2)c2ccccn2)CC1`, the neuronal differentiation score in the experiment with ReNCell VM [1] (library: LOPAC) was inactive: 0. In addition, in the experiment with ReNCell VM [2] (library: LOPAC), the “dopaminergic neuron differentiation score” value was inactive: 0.
Consider `CCCCC1(COC(=O)CCC(=O)O)C(=O)N(c2ccccc2)N(c2ccccc2)C1=O`, for which the neuronal differentiation score in the experiment with ReNCell VM [1] (library: Spectrum) was inactive: 0. In the experiment with ReNCell VM [2] (library: Spectrum), the “dopaminergic neuron differentiation score” value was inactive: 0.
Take `COc1cc(/C=C/C(=O)O)cc(OC)c1OC`: the neuronal differentiation score in the experiment with ReNCell VM [1] (library: Spectrum) was inactive: 0. Also, the “dopaminergic neuron differentiation score” value with ReNCell VM [2] (library: Spectrum) is inactive: 0.
With `c1ccc(N2CCN(Cc3nc4ccccc4[nH]3)CC2)nc1` [ABT 724 trihydrochloride], the neuronal differentiation score in the experiment with ReNCell VM [1] (library: Tocriscreen) is inactive: 0. In the experiment with ReNCell VM [2] (library: Tocriscreen), the “dopaminergic neuron differentiation score” value was inactive: 0.
On to `CC(C)OC(=O)C(C)(C)Oc1ccc(C(=O)c2ccc(Cl)cc2)cc1`, for which the neuronal differentiation score in the experiment with ReNCell VM [1] (library: Spectrum) was inactive: 0. Also, the “dopaminergic neuron differentiation score” value with ReNCell VM [2] (library: Spectrum) was inactive: 0.
`N[C@@H](C(=O)O)c1ccc(O)c(C(=O)O)c1` [(R)-3-Carboxy-4-hydroxyphenylglycine]: in the experiment with ReNCell VM [1] (library: Tocriscreen), the neuronal differentiation score was inactive: 0. In addition, the “dopaminergic neuron differentiation score” value with ReNCell VM [2] (library: Tocriscreen) is inactive: 0.
Turning to `CC[N+](C)(CC)CCOC(=O)C(O)(c1ccccc1)C1CCCCC1` (stereo unspecified), the neuronal differentiation score in the experiment with ReNCell VM [1] (library: Spectrum) was inactive: 0. In addition, the “dopaminergic neuron differentiation score” value with ReNCell VM [2] (library: Spectrum) was inactive: 0.
In the case of `NC(=O)N1C(=O)/C(=C(\O)c2cccs2)c2cc(Cl)ccc21` [Tenidap], the neuronal differentiation score in the experiment with ReNCell VM [1] (library: Tocriscreen) was inactive: 0. Besides, the “dopaminergic neuron differentiation score” value in the experiment on ReNCell VM [2] (library: Tocriscreen) is inactive: 1.
On to `COc1ccc2c(c1)OC1(O)COc3cc(OC)c(OC)cc3C1=C2` (stereo unspecified), for which the neuronal differentiation score in the experiment with ReNCell VM [1] (library: Spectrum) was inactive: 0. Moreover, in the experiment on ReNCell VM [2] (library: Spectrum), the “dopaminergic neuron differentiation score” value was inactive: 0.
Take `CN(C/C=C/c1ccccc1)Cc1cccc2ccccc12` [Naftifine hydrochloride]: the neuronal differentiation score with ReNCell VM [1] (library: Prestwick) is inactive: 0. Moreover, the “dopaminergic neuron differentiation score” value in the experiment with ReNCell VM [2] (library: Prestwick) was inactive: 0.
For `O=C(O)c1cc(=O)c(O)c2c(O)c(O)c(O)cc2c1`, the neuronal differentiation score in the experiment with ReNCell VM [1] (library: Spectrum) is inactive: 0. Moreover, the “dopaminergic neuron differentiation score” value with ReNCell VM [2] (library: Spectrum) is inactive: 0.
`CC1=CC(=O)[C@H]2C(C)(C)CCC[C@]2(C)[C@@]1(O)CCc1ccoc1`: the neuronal differentiation score in the experiment on ReNCell VM [1] (library: Spectrum) was inactive: 0. The “dopaminergic neuron differentiation score” value in the experiment on ReNCell VM [2] (library: Spectrum) is inactive: 0.
For the compound `COc1ccc2c(c1OC)OC[C@@H](c1ccc(OC)c(OC)c1OC)C2`, in the experiment on ReNCell VM [1] (library: Spectrum), the neuronal differentiation score is inactive: 0. The “dopaminergic neuron differentiation score” value with ReNCell VM [2] (library: Spectrum) is inactive: 0.

The record behind these values is the supplement of paper PMC4635364.
